Assay [1] addresses recombinant HMGB1 with a calmodulin-binding protein (CBP) tag (UniProt P09429). In words: pull-down; CBP-tagged HMGB1 or 10 µg CBP peptide incubated overnight at 4°C with HEK-Blue hTLR4 cell lysates, captured on calmodulin beads, washed with PBS 0.1% Triton X-100, immunoblot with anti-TLR4; only the target purified.
Assay [2] addresses recombinant disulfide HMGB1 protein (UniProt P09429). Kind of assay: SPR; HMGB1 coated on the chip; hTLR4 as analyte (100 nM) plus increasing amounts of PSMs; both purified.

Sequences of proteins named here, by UniProt entry; tags and fusion partners are left off. A change or cut given only in a name is not applied to a line headed by its entry.
UniProt P09429: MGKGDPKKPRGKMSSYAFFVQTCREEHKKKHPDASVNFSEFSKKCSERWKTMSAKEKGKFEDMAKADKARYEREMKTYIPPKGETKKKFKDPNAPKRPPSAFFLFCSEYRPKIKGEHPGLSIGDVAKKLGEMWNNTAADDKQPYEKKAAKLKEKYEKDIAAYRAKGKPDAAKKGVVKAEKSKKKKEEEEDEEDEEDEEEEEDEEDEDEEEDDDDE
UniProt O00206: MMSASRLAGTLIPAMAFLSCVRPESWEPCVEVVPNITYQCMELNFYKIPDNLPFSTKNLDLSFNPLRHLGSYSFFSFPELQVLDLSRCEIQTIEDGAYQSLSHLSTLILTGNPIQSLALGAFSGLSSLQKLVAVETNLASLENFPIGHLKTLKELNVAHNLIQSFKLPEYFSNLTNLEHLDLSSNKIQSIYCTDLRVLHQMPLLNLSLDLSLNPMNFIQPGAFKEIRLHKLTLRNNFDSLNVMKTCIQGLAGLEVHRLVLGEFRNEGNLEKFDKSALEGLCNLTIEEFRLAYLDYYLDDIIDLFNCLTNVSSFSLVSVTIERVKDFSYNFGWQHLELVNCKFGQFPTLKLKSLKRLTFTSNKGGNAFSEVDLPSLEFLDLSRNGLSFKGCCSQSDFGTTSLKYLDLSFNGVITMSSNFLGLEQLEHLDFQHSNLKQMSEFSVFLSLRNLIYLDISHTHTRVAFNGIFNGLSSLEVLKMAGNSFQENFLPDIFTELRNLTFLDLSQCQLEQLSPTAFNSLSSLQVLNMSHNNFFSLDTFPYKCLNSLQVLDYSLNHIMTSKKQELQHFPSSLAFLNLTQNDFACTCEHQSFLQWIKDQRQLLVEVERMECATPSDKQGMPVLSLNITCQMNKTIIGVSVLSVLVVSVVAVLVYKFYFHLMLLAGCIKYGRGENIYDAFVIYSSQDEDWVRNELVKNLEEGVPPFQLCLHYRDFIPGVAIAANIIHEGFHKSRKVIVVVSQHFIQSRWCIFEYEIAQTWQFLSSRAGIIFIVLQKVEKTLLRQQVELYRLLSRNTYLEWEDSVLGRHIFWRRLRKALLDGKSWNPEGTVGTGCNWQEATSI

Results are given in words; binding and its absence hold for the method and conditions named. For some assays here: Binding seen in cells or lysates may run through a third protein. Some binding calls cover weakened binding; strength is not graded here.

With “human TLR4 in HEK-Blue hTLR4 cell lysates (from UniProt O00206 24-839) (receptor)”, in assay [1], the binding result is recorded as “binds”.

Take “recombinant human TLR4 protein (ectodomain, Glu24-Lys631) (from UniProt O00206 24-631) (domain or fragment)”: the binding result in assay [2] is “binds”.
